Some results were stated once for a whole list of compounds, not compound by compound.
Key:
KB (nasopharynx cancer) = assay: Cytotoxicity test with sulphorhodamine B, 72 h, KB line; details: for higher activity than 5AddFU, nasopharynx cancer cells: relative to 5AddFU; for higher activity than 5FU, nasopharynx cancer cells: relative to 5FU; for higher activity than 5FdU, nasopharynx cancer cells: relative to 5FdU
HeLa (cervical cancer) = assay: Cytotoxicity test with sulphorhodamine B, 72 h, HeLa line; details: for higher activity than 5AddFU, cervical cancer cells: relative to 5AddFU; for higher activity than 5FdU, cervical cancer cells: relative to 5FdU
A549 (lung cancer) = assay: Cytotoxicity test with sulphorhodamine B, 72 h, A549 line; details: for higher activity than 5AddFU, lung cancer cells: relative to 5AddFU; for higher activity than 5FU, lung cancer cells: relative to 5FU; for higher activity than 5FdU, lung cancer cells: relative to 5FdU

## O=c1[nH]c(=O)n(C2CC(O)C(Cn3cc(C4CN5CCC4C[C@@H]5[C@@H](O)c4ccnc5ccccc45)nn3)O2)cc1F (stereo partly shown) [CN5AFU, 5-Fluoro-1-(4-hydroxy-5-{4-[6-(hydroxy-quinolin-4-yl-methyl)-1-aza-bicyclo[2.2.2]oct-3-yl]-[1,2,3]triazol-1-ylmethyl}-tetrahydrofuran-2-yl)-1H-pyrimidine-2,4-dione]
KB (nasopharynx cancer)
  higher activity than 5AddFU, nasopharynx cancer cells: more than 2 fold
  higher activity than 5FU, nasopharynx cancer cells: more than 1.4 fold
  higher activity than 5FdU, nasopharynx cancer cells: more than 1.7 fold
HeLa (cervical cancer)
  higher activity than 5AddFU, cervical cancer cells: more than 2 fold
  higher activity than 5FdU, cervical cancer cells: more than 1.2 fold
A549 (lung cancer)
  higher activity than 5AddFU, lung cancer cells: more than 2 fold
  higher activity than 5FU, lung cancer cells: more than 1.03 fold
  higher activity than 5FdU, lung cancer cells: more than 1.2 fold

## C=CC1C[N@@]2CCC1C[C@@H]2[C@@H](OCc1cn(CC2OC(n3cc(F)c(=O)[nH]c3=O)CC2O)nn1)c1ccnc2ccccc12 (stereo partly shown) [PCN5AFU, 5-Fluoro-1-(4-hydroxy-5-{4-[quinolin-4-yl-(5-vinyl-1-aza-bicyclo[2.2.2]oct-2-yl)-methoxymethyl]-[1,2,3]triazol-1-ylmethyl}-tetrahydrofuran-2-yl)-1H-pyrimidine-2,4-dione]
KB (nasopharynx cancer)
  higher activity than 5AddFU, nasopharynx cancer cells: more than 2 fold
  higher activity than 5FU, nasopharynx cancer cells: more than 1.4 fold
  higher activity than 5FdU, nasopharynx cancer cells: more than 1.7 fold
HeLa (cervical cancer)
  higher activity than 5AddFU, cervical cancer cells: more than 2 fold
  higher activity than 5FdU, cervical cancer cells: more than 1.2 fold
A549 (lung cancer)
  higher activity than 5AddFU, lung cancer cells: more than 2 fold
  higher activity than 5FU, lung cancer cells: more than 1.03 fold
  higher activity than 5FdU, lung cancer cells: more than 1.2 fold
